Experimental data: PubChem BioAssay AID2685 (National Center for Advancing Translational Sciences (NCATS), 2010)
Some of the results follow. Further columns of the screen follow, without active or inactive calls. The list favours compounds with an active or inconclusive main result. Potencies come from curve fits of mixed quality, noted in brackets.

Test: qHTS Assay for Lipid Storage Modulators in Drosophila S3 Cells;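 as to cell number change: cells counted by Cell Tracker Red CMTPX staining in the red channel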
Conditions: BODIPY lipid droplet fluorescence, 18-24 h; for cell number change: measured here: cell count max response, cells fed with added oleic acid
In short: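 Laser-scanning cytometry quantifies lipid droplet accumulation (500–530 nm total intensity; droplet/cell object ratio) in oleic acid-fed (400 uM added) Drosophila S3 cells treated with a concentration series. 20 uM Triacsin C defined 100% inhibition.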

[1] = measured here: cell number channel AC50, cells fed with added oleic acid
[2] = measured here: lipid fluorescence (Fed channel) AC50, cells fed with added oleic acid

Structure (SMILES) | cell number change [%] | AC50 [1] | AC50 [2]
CSc1ccccc1NC(=O)c1cc2c(=O)n3ccccc3nc2s1 | -9.7 | – | –
O=C(Cc1ccsc1)NCC(=O)Nc1ccc(F)c(F)c1 | – | 4.11 µM [rising, partial curve, poor fit] | –
COC(=O)c1cccc(NS(C)(=O)=O)c1C | – | – | 32.6 µM [falling, single point]
Cc1cnc(C(=O)OCC(=O)Nc2ccc(OCc3ccccc3)cc2)cn1 | -4.1 | 0.00461 µM [falling, full curve, poor fit] | –
Cc1ccc(S(=O)(=O)N2CCN(C(=O)NCc3ccc(C(=O)O)cc3)CC2)cc1 | 9.17 | – | 8.2 µM [rising, single point]
O=C(CSCc1ccc(Br)cc1)Nc1ccc(S(=O)(=O)N2CCCCCC2)cc1 | 97.4 | – | 29.1 µM [falling, single point]
Cn1cc(CNCc2ccc(-n3cccn3)cc2)c(-c2ccccc2F)n1 | -51.7 | 7.31 µM [falling, partial curve] | 7.31 µM [falling, partial curve]
Cc1cc(N/N=C/c2cccc(Br)c2)nc2ccccc12 | 26 | – | 29.1 µM [falling, single point]
Cc1ccnc(NC(=O)c2ccc([N+](=O)[O-])o2)c1 | -29.3 | – | 25.9 µM [falling, single point]
CN(c1ccccc1)S(=O)(=O)c1cccc(NC(=O)CCNC(=O)c2ccc(Cl)cc2)c1 | 14.9 | – | 2.91 µM [rising, single point]
CN(CC(=O)Nc1ccccc1Br)CC(=O)Nc1ccccc1C(F)(F)F | 30.5 | – | –
O=C(COC(=O)c1ccc2c(c1Cl)C(=O)c1ccccc1C2=O)NC1CCCCC1 | 31.1 | 20.6 µM [rising, single point] | 29.1 µM [rising, single point]
COc1ccc(/C=C/C2=CCN(Cc3ccc(OC)cc3)CC2)cc1 | -29.2 | – | 29.1 µM [falling, single point]
O=C(Cc1cn2ccsc2n1)Nc1cccc2cnccc12 | -12.6 | 0.00517 µM [rising, full curve, poor fit] | 13 µM [rising, partial curve]
COc1ccc(NS(=O)(=O)c2ccc(-c3coc(C)n3)cc2)cc1OC | -11.9 | 6.51 µM [falling, single point] | 10.3 µM [falling, partial curve]
Cc1onc(-c2c(Cl)cccc2Cl)c1C(=O)NN1CCCCCC1 | -28.7 | – | 20.6 µM [falling, single point]
Cc1ccc(-c2cc(C(=O)OCC(=O)N(C)c3c(N)n(Cc4ccccc4)c(=O)[nH]c3=O)c3ccccc3n2)o1 | -60.7 | 14.6 µM [falling, partial curve] | 6.51 µM [falling, single point]
CN(C(=O)/C=C/c1ccc2c(c1)OCO2)c1ccccc1 | -12.9 | – | 6.51 µM [falling, single point]
CN(C)c1ccncc1C(=O)Nc1ccc(F)cc1F | 12.1 | – | 0.517 µM [falling, single point]
CCOC(=O)c1ccc(NC(=O)c2cccc(S(=O)(=O)N3CCOCC3)c2)cc1 | -20.8 | – | –

Structure (SMILES) | cell number change [%] | AC50 [1] | AC50 [2]
CC(=O)Nc1cc2c(cc1C(=O)c1ccc(C)cc1)OCCO2 | -1.9 | – | 11.6 µM [rising, partial curve, poor fit]
CCOC(=O)C1=C(c2ccccc2)N=c2s/c(=C\c3ccc(O)cc3)c(=O)n2C1c1cccs1 (stereo not given) | -82.6 | 18.4 µM [falling, single point] | –
Cc1nc2ccccc2n1CC(=O)c1ccc(O)c(O)c1 | 10.3 | 0.184 µM [rising, full curve, poor fit] | 6.51 µM [rising, single point]
COc1ccccc1C(=O)NC(CCSC)C(=O)NNC(=O)c1ccncc1 (stereo not given) | – | – | 29.1 µM [rising, single point]
Cc1cccc2cc(CN(Cc3ccco3)C(=O)c3ccncc3)c(=O)[nH]c12 | 104 | 20.6 µM [rising, partial curve] | 3.66 µM [rising, partial curve]
COc1ccccc1CC(NC(C)=O)C(=O)NC1CCN(C(=O)Nc2ccccc2F)CC1 (stereo not given) | 6.41 | – | 6.51 µM [falling, partial curve]
Fc1ccc(COc2ccc3ccccc3c2CNc2nn[nH]n2)cc1 | 30.3 | 7.31 µM [rising, partial curve, poor fit] | –
O=C(CSc1nnc2c(n1)[nH]c1ccc(S(=O)(=O)N3CCOCC3)cc12)Nc1ccccc1Cl | 21 | – | –
O=C(/C=C/c1ccco1)Nc1cccc(NC(=O)/C=C/c2ccco2)n1 | -11.4 | – | –
O=C(CN(Cc1ccccc1)C(=O)CCC(=O)Nc1nccs1)NCc1ccco1 | 7.98 | – | –
CSc1nc(SCC(=O)NCC2CCCO2)c2c3c(sc2n1)CN(C)CC3 (stereo not given) | 1.9 | – | 4.11 µM [falling, single point]
Cc1ccc(S(=O)(=O)NCC(=O)OCC(=O)NC(=O)NC2CCCC2)cc1 | 25.7 | – | 18.4 µM [rising, single point]
COc1ccc(CC/C(C)=N\NC(N)=O)cc1 | 31.3 | 29.1 µM [rising, single point] | 29.1 µM [rising, single point]
CCN(CC)C(=O)c1ccccc1NC(=O)c1cccc(S(=O)(=O)N(CC)CC)c1 | 35.7 | 3.66 µM [rising, partial curve] | 7.31 µM [rising, partial curve]
O=C(CN(Cc1ccccc1)S(=O)(=O)c1ccc2c(c1)OCCO2)N/N=C/c1ccc(F)cc1 | 20.6 | – | 4.11 µM [rising, single point]
COc1ccccc1NC(=O)CSC1=NCCN1 | 1.45 | – | 29.1 µM [falling, single point]
O=C(NCc1cccnc1)C1CCN(S(=O)(=O)c2cccc(C(F)(F)F)c2)CC1 | -5.08 | – | 0.92 µM [rising, full curve, poor fit]
c1ccc(N2CCN(c3ncnc4sc5c(c34)CCC5)CC2)cc1 | -19.2 | – | 0.411 µM [rising, partial curve]
CC(C)CCC(CCN1CCOCC1)c1ccc2c(c1)OCO2 (stereo not given) | 1.37 | – | 0.291 µM [rising, full curve, poor fit]
O=C(CCOc1cccc(Br)c1)Nc1ccc(F)c(S(=O)(=O)N2CCOCC2)c1 | -75 | 8.2 µM [falling, partial curve] | 2.06 µM [falling, partial curve]

Part of the list above, in markdown:

| Structure (SMILES) | cell number change [%] | AC50 [1] | AC50 [2] |
| --- | --- | --- | --- |
| Cc1cnc(C(=O)OCC(=O)Nc2ccc(OCc3ccccc3)cc2)cn1 | -4.1 | 0.00461 µM [falling, full curve, poor fit] | – |
| Cc1ccc(S(=O)(=O)N2CCN(C(=O)NCc3ccc(C(=O)O)cc3)CC2)cc1 | 9.17 | – | 8.2 µM [rising, single point] |
| O=C(CSCc1ccc(Br)cc1)Nc1ccc(S(=O)(=O)N2CCCCCC2)cc1 | 97.4 | – | 29.1 µM [falling, single point] |
| Cn1cc(CNCc2ccc(-n3cccn3)cc2)c(-c2ccccc2F)n1 | -51.7 | 7.31 µM [falling, partial curve] | 7.31 µM [falling, partial curve] |
| Cc1cc(N/N=C/c2cccc(Br)c2)nc2ccccc12 | 26 | – | 29.1 µM [falling, single point] |
| Cc1ccnc(NC(=O)c2ccc([N+](=O)[O-])o2)c1 | -29.3 | – | 25.9 µM [falling, single point] |
| CN(c1ccccc1)S(=O)(=O)c1cccc(NC(=O)CCNC(=O)c2ccc(Cl)cc2)c1 | 14.9 | – | 2.91 µM [rising, single point] |
| CN(CC(=O)Nc1ccccc1Br)CC(=O)Nc1ccccc1C(F)(F)F | 30.5 | – | – |
| O=C(COC(=O)c1ccc2c(c1Cl)C(=O)c1ccccc1C2=O)NC1CCCCC1 | 31.1 | 20.6 µM [rising, single point] | 29.1 µM [rising, single point] |
| COc1ccc(/C=C/C2=CCN(Cc3ccc(OC)cc3)CC2)cc1 | -29.2 | – | 29.1 µM [falling, single point] |
| O=C(Cc1cn2ccsc2n1)Nc1cccc2cnccc12 | -12.6 | 0.00517 µM [rising, full curve, poor fit] | 13 µM [rising, partial curve] |
| COc1ccc(NS(=O)(=O)c2ccc(-c3coc(C)n3)cc2)cc1OC | -11.9 | 6.51 µM [falling, single point] | 10.3 µM [falling, partial curve] |
| Cc1onc(-c2c(Cl)cccc2Cl)c1C(=O)NN1CCCCCC1 | -28.7 | – | 20.6 µM [falling, single point] |
| Cc1ccc(-c2cc(C(=O)OCC(=O)N(C)c3c(N)n(Cc4ccccc4)c(=O)[nH]c3=O)c3ccccc3n2)o1 | -60.7 | 14.6 µM [falling, partial curve] | 6.51 µM [falling, single point] |
| CN(C(=O)/C=C/c1ccc2c(c1)OCO2)c1ccccc1 | -12.9 | – | 6.51 µM [falling, single point] |
| CN(C)c1ccncc1C(=O)Nc1ccc(F)cc1F | 12.1 | – | 0.517 µM [falling, single point] |
| CCOC(=O)c1ccc(NC(=O)c2cccc(S(=O)(=O)N3CCOCC3)c2)cc1 | -20.8 | – | – |
| CC(=O)Nc1cc2c(cc1C(=O)c1ccc(C)cc1)OCCO2 | -1.9 | – | 11.6 µM [rising, partial curve, poor fit] |

The results go on.

Structure (SMILES) | cell number change [%] | AC50 [1] | AC50 [2]
CCOC(=O)N1CCN(S(=O)(=O)N2CCCC(C(=O)NCCc3ccc(OCC)c(OCC)c3)C2)CC1 (stereo not given) | – | – | 1.3 µM [falling, full curve]
O=Cc1ccc(-c2ccccc2OC(F)(F)F)o1 | -13.5 | – | 0.116 µM [rising, full curve, poor fit]
COc1ccc(C2CC(c3ccc4ccccc4c3)=NN2C(=O)COC(=O)C2CCC(=O)N2)cc1 (stereo not given) | -2.6 | – | 6.51 µM [rising, single point]
CN1CCN(CCCC(=O)c2ccc(F)cc2)CC1 | 0.841 | – | 5.8 µM [falling, single point]
COc1c(O)ccc(/C=C(\C#N)c2nc3ccccc3[nH]2)c1[N+](=O)[O-] | 15.3 | – | 6.51 µM [rising, single point]
CCOc1cccc2sc(=NC(=O)CCS(=O)(=O)c3ccccc3)n(CC)c12 | – | 0.0651 µM [rising, full curve, poor fit] | –
Cc1ccc(NC(=S)NN2CCN(C)CC2)cc1 | -16.7 | 1.03 µM [rising, full curve, poor fit] | –
O=C(Cn1cnc2cc([N+](=O)[O-])ccc2c1=O)Nc1ccccc1Cl | 2.91 | – | 6.51 µM [falling, single point]
COc1cccc(N2C(=O)C3CCCN3C2c2ccc(Cl)cc2)c1 (stereo not given) | – | – | 1.3 µM [falling, single point]
O=C(NCC1CCCO1)c1ccc2c(=O)n(-c3ccc(F)cc3)c(=S)[nH]c2c1 (stereo not given) | 31.6 | 13 µM [rising, partial curve] | –
COCC(=O)Nc1ccc(C(N)=O)cc1 | -4.05 | – | 1.84 µM [falling, partial curve]
CC(NC(=O)c1ccc(Br)o1)c1ccccc1 (stereo not given) | – | 6.51 µM [falling, single point] | 6.51 µM [falling, partial curve, poor fit]
COc1ccc(C)cc1NC(=O)CN(C)S(=O)(=O)c1cnc[nH]1 | 47.9 | 10.3 µM [rising, partial curve] | 6.51 µM [rising, partial curve, poor fit]
O=C(N/N=C/c1cc(Br)c(Br)o1)C(O)c1ccccc1 (stereo not given) | -5.97 | – | 3.66 µM [rising, single point]
COc1ccc(/C=C/C(=O)Nc2nnc(C(C)C)s2)cc1OC | 36.3 | 0.82 µM [rising, partial curve, poor fit] | –
CC(=O)NS(=O)(=O)c1ccc(NC(=O)/C=C/c2ccccc2Cl)cc1 | -51.3 | 16.4 µM [falling, partial curve] | –
S=C(c1ccc(-c2ccccc2Cl)o1)N1CCCCC1 | 6.48 | – | 29.1 µM [falling, single point]
CCNS(=O)(=O)c1ccc(CCC(=O)N2CCC(C)CC2)cc1 | 3.86 | – | –
CCN(CC)CCCNC(=O)C1c2ccccc2Oc2ccccc21 | 15.9 | – | –
